Assay results published in publication PMC5388395.
Results are given in words; binding and its absence hold for the method and conditions named. In cells and extracts the contact can be indirect. A yes stands for co-enrichment or nearness to the bait. Other partners may have been found.

The chains behind the UniProt entries cited, without tags or fusion partners.
UniProt Q03330: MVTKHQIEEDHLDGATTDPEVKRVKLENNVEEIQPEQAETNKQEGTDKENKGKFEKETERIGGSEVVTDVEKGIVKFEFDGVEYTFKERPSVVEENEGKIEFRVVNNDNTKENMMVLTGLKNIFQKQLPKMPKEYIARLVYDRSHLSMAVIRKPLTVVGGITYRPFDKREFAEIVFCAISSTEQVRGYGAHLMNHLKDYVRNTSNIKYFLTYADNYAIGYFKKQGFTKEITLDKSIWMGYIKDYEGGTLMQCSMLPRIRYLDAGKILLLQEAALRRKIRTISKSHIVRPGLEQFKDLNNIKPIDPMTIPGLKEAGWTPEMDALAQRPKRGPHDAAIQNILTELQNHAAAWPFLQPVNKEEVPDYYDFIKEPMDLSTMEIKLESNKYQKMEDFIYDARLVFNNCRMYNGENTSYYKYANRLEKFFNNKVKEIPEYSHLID
UniProt P00359: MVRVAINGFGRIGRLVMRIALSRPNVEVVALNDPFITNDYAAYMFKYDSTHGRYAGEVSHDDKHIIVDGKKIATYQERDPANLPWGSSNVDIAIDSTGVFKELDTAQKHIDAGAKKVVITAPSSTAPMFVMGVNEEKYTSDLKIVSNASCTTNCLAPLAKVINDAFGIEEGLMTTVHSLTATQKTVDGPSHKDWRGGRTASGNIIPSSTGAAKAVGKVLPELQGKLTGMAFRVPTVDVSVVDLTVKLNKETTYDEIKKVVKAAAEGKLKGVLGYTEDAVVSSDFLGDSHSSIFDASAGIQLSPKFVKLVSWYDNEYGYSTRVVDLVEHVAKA
UniProt P35177: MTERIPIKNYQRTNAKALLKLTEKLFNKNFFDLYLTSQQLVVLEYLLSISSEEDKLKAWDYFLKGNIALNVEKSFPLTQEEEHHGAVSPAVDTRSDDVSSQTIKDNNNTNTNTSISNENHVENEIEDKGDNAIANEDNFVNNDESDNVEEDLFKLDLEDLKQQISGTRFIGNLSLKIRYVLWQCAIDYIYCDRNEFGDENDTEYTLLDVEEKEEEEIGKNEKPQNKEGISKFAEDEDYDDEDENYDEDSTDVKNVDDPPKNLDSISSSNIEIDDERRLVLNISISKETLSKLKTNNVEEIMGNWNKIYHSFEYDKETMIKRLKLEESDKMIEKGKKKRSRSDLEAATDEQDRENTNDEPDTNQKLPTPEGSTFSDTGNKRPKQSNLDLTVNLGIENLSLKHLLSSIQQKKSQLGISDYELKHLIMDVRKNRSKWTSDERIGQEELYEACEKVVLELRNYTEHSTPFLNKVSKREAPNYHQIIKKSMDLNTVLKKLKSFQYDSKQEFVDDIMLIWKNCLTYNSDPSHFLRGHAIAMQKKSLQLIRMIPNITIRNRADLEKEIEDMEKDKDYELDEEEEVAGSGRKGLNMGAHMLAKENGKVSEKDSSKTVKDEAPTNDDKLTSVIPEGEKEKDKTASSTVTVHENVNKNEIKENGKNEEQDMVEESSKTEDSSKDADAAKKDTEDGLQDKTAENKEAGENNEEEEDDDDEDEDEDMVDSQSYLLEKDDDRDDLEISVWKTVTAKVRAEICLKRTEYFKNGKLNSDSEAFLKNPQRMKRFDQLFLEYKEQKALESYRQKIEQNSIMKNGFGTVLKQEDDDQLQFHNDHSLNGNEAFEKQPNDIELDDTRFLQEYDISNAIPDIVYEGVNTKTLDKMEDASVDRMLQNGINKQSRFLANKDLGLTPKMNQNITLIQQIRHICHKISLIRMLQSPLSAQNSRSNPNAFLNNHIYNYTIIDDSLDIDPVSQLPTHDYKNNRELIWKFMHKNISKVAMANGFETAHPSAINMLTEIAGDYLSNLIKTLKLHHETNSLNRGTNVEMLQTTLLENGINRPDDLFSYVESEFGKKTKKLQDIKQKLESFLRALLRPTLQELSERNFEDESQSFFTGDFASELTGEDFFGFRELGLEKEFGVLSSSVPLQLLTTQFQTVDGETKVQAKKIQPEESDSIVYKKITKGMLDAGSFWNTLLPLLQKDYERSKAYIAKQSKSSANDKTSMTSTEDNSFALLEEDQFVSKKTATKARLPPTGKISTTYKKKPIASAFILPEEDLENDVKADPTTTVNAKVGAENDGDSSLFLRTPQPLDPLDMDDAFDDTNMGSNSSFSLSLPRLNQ
UniProt P38811: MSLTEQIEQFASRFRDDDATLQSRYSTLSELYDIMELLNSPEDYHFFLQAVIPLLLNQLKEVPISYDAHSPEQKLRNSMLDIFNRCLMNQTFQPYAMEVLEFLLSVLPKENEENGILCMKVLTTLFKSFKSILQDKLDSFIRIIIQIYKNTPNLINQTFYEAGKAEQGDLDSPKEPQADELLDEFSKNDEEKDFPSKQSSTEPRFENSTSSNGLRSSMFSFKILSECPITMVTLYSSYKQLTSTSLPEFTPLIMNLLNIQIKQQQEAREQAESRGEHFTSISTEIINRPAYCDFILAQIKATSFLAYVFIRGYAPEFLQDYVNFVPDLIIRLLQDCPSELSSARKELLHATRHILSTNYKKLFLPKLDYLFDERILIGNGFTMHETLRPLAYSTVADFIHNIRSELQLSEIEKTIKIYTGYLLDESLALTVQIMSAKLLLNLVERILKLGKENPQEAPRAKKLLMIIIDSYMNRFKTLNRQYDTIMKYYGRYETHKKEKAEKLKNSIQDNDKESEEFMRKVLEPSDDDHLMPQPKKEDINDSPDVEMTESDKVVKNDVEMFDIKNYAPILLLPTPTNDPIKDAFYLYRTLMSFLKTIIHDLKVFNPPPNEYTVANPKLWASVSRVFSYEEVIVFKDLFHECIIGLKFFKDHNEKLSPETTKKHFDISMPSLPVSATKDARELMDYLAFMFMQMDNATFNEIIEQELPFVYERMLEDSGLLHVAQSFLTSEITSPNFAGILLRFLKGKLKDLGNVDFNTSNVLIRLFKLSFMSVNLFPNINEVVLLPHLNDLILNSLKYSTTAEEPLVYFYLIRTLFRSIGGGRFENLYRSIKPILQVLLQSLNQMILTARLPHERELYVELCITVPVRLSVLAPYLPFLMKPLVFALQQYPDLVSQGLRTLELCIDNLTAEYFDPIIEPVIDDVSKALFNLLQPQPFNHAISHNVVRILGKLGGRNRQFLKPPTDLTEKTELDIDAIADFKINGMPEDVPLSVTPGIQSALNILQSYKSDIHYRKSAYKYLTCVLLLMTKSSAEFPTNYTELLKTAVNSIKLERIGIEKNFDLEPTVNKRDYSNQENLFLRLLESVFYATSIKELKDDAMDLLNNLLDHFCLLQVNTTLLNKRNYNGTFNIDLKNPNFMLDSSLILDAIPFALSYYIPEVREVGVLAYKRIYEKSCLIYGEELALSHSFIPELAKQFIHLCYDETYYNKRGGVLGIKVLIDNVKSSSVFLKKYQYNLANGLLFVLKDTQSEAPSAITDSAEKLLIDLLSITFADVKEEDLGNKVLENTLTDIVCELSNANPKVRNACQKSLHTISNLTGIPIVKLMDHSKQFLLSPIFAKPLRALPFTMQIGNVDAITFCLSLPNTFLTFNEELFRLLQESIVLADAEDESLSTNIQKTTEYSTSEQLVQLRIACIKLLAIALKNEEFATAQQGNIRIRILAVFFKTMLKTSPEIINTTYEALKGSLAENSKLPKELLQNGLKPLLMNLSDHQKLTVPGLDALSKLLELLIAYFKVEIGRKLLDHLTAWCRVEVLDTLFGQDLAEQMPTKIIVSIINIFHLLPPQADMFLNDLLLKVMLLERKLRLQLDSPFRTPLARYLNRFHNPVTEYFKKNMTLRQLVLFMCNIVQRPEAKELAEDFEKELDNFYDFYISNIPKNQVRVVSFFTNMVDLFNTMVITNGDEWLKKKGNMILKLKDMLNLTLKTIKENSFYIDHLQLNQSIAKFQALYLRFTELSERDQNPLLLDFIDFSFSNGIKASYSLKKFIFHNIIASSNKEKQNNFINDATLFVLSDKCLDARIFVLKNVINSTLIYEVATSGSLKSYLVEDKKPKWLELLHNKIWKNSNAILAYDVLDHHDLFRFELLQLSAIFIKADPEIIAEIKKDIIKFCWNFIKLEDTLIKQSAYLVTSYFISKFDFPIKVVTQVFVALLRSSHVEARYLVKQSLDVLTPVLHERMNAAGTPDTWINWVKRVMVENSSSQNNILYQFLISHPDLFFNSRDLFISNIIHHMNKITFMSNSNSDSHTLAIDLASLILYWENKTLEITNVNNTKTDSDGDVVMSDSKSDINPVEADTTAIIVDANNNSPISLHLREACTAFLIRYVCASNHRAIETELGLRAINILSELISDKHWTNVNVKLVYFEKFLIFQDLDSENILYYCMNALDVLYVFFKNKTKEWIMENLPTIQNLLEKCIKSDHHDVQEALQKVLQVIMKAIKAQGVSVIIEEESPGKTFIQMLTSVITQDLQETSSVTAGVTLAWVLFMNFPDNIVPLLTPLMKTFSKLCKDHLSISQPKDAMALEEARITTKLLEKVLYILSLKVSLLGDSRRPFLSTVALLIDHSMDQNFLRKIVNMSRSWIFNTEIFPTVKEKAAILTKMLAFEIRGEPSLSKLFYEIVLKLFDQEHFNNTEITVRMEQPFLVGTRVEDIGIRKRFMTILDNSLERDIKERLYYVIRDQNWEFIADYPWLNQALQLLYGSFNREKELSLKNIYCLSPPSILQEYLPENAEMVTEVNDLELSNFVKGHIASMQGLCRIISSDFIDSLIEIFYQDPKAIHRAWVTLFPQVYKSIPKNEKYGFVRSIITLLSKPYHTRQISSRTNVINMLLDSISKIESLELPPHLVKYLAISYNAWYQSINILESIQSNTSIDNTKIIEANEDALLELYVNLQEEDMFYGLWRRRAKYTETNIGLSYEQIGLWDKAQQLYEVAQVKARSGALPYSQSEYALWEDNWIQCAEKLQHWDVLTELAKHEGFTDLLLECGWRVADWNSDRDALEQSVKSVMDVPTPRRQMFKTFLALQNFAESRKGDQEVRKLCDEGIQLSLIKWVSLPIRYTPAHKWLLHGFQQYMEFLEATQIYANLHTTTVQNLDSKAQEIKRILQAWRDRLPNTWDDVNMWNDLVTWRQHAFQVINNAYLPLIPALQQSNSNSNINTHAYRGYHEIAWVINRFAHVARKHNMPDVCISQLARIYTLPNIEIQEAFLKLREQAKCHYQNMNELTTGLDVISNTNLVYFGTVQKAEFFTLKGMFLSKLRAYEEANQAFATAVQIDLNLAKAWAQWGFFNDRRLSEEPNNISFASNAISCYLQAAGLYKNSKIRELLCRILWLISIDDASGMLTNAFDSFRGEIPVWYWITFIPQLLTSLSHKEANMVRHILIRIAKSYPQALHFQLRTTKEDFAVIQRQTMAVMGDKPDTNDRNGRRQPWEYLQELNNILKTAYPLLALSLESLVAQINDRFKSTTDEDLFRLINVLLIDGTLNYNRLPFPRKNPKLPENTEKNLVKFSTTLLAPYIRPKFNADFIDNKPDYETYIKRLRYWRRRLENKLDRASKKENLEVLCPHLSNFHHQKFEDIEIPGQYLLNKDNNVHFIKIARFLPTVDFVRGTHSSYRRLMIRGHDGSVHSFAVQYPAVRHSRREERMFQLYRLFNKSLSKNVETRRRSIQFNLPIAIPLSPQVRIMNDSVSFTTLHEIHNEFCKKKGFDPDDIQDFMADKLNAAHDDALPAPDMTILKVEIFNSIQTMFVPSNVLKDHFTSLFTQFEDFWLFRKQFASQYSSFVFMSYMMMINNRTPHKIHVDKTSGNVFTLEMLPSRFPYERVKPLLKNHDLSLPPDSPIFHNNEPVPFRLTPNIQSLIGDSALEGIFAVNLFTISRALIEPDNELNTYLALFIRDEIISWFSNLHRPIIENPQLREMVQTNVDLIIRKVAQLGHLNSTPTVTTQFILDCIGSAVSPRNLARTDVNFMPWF

Legend:
Gcn5-TAP (S. cerevisiae) [1] = target: Gcn5-TAP (S. cerevisiae) (UniProt Q03330); assay: affinity purification with mass spectrometry; single affinity purification step of the TAP-tagged subunit, SDS-PAGE, coomassie staining, bands identified by mass spectrometry; WT and not5Δ cells
Gcn5-TAP (S. cerevisiae) [2] = target: Gcn5-TAP (S. cerevisiae) (UniProt Q03330); assay: affinity purification with mass spectrometry; quantitative mass spectrometry of Gcn5 purified from WT and not5Δ, total purified proteins and SAGA-sized complexes
Ada1-TAP (S. cerevisiae) = target: T1, Ada1-TAP (S. cerevisiae) (UniProt Q12060); assay: affinity purification with mass spectrometry; single affinity purification step of the TAP-tagged subunit, SDS-PAGE, coomassie staining, bands identified by mass spectrometry; WT and not5Δ cells
T1 sequence: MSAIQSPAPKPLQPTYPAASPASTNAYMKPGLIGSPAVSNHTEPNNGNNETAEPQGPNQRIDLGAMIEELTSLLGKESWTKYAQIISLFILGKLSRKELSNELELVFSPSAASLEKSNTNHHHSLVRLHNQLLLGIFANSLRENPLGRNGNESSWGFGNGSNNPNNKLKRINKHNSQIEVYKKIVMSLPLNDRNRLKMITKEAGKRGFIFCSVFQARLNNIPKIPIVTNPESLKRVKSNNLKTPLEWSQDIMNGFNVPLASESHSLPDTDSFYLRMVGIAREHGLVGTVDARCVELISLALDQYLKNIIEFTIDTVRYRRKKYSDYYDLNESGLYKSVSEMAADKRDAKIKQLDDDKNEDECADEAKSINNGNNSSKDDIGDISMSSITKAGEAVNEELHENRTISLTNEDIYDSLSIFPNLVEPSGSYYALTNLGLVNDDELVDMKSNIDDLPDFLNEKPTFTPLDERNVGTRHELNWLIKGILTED

For “Tdh3 (from UniProt P00359 1-332) (enzyme)”, the binding (Gcn5-TAP (S. cerevisiae) [1]) was “binds”.

With Spt7 (from UniProt P35177 1-1332) the binding (Gcn5-TAP (S. cerevisiae) [2]) was “binds”.

In the case of Tra1 (from UniProt P38811 1-3744), the binding (Gcn5-TAP (S. cerevisiae) [2]) is reported as “binds”.

B1: Spt20 (protein, UniProt P50875 1-604)
chain: MSANSPTGNDPHVFGIPVNATPSNMGSPGSPVNVPPPMNPAVANVNHPVMRTNSNSNANEGTRTLTREQIQQLQQRQRLLLQQRLLEQQRKQQALQNYEAQFYQMLMTLNKRPKRLYNFVEDADSILKKYEQYLHSFEFHIYENNYKICAPANSRLQQQQKQPELTSDGLILTKNNETLKEFLEYVARGRIPDAIMEVLRDCNIQFYEGNLILQVYDHTNTVDVTPKENKPNLNSSSSPSNNNSTQDNSKIQQPSEPNSGVANTGANTANKKASFKRPRVYRTLLKPNDLTTYYDMMSYADNARFSDSIYQQFESEILTLTKRNLSLSVPLNPYEHRDMLEETAFSEPHWDSEKKSFIHEHRAESTREGTKGVVGHIEERDEFPQHSSNYEQLMLIMNERTTTITNSTFAVSLTKNAMEIASSSSNGVRGASSSTSNSASNTRNNSLANGNQVALAAAAAAAAVGSTMGNDNNQFSRLKFIEQWRINKEKRKQQALSANINPTPFNARISMTAPLTPQQQLLQRQQQALEQQQNGGAMKNANKRSGNNATSNNNNNNNNLDKPKVKRPRKNAKKSESGTPAPKKKRMTKKKQSASSTPSSTTMS
In the case of B1, the binding (Ada1-TAP (S. cerevisiae)) is reported as “binds”.

B2: Spt8 (protein, UniProt P38915 1-602)
chain: MDEVDDILINNQVVDDEEDDEEMLSGLENDSKQDLEGNDDGGEDEEDDDDDDEDDDDDEDEREDDDEQEDDDGEDDAARMDKTATPTNEHQHDEQKAAAAGAGGAGDSGDAVTKIGSEDVKLSDVDGGVGSREASSSTHEASANGEVYEYYKHMLNAAQIADSYNIYPTAAIPIQTHVNALAVSRGLKYLFLGGSDGYIRKYDLLNTLEGKLSLTILQKHSLAESIQNAGILQSYWENEIPQKKSEMKLSANKTDYEPKVSPVHSLEVQSECLFILSGLQNGGITMQGVRYMEGSIAHYFKGRNGHTQIVNILRLNGQEDRFLSGSWDKRLLEWDLQTGDIVNEFKKSRSELSSLEMRPLYSSVDVSGNVNSGKENENADDDMDSLFGDEDEDEKQDAGNEPVETGDGSNGEENKEQISEESLNIVYDESVFMTSGLNGSVHIWDRRMTQSPALSLERGAGVPPWCLSACWGVDGDHVYAGRRNACVEQFDLKMPSKPIHNLKLPSISGPVSCVKAMPNNKHLLCASRDNIRLYNVEIAVDASNSTTKSSKVPFLIVPGHHGGIISNLYLDPTSRFIISTSGNRGWQGNSTDTTLIYDIDLE
For B2, the binding (Gcn5-TAP (S. cerevisiae) [2]) was “binds”.
